Values of other authors, collected in US11266626B2, “Reduction of ER-MAM-localized APP-C99 and methods of treating alzheimer's disease” (THE TRUSTEES OF COLUMBIA UNIVERSITY IN THE CITY OF NEW YORK, priority 2015, dated 2022).
At least one compound was matched to its structure with a doubt left.

Tested on: γ-secretase
Conditions: A2A-AR antagonists; Lu, J. et al.; cited from earlier work

Structure (SMILES): CCn1c(=O)c2c(nc(/C=C/c3ccc(OC)c(OC)c3)n2C)n(CC)c1=O [Istradefylline]
- Aβ42: increased Aβ42
- γ-secretase activity: increased γ-secretase activity
